The text below walks through data of article PMC11886612.

Chains of the proteins cited; added tags and fusions are not shown. Lines headed by an entry give the natural chain unless they say otherwise; changes in a name come on top. Residues count along the entry.
UniProt Q16654, residues 335-411: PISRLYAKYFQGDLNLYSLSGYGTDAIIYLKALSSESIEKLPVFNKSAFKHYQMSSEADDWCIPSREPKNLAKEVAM

Results are given in words; binding and its absence hold for the method and conditions named. In cells and extracts the contact can be indirect. Some binding calls cover weakened binding; strength is not graded here.

The assay deals with PDK4 truncated mutant, region 335-411 (UniProt Q16654). In words: co-IP; truncated mutants of Decr1 and PDK4; cells not given.

B1: Decr1 truncated mutant, region 151-335 (domain or fragment, UniProt Q16698 151-335)
chain: SPTERLSPNAWKTITDIVLNGTAFVTLEIGKQLIKAQKGAAFLSITTIYAETGSGFVVPSASAKAGVEAMSKSLAAEWGKYGMRFNVIQPGPIKTKGAFSRLDPTGTFEKEMIGRIPCGRLGTVEELANLAAFLCSDYASWINGAVIKFDGGEEVLISGEFNDLRKVTKEQWDTIEELIRKTKGS
With B1, the binding entry was “binds”.
